According to US20070142282A1:
No constants are given. Whether binding was seen depends on the method and setting. For part of these data: In cells and extracts the contact can be indirect. Some binding calls cover weakened binding; strength is not graded here. For part of these data: Where a sequence is shown, tags or fusion partners need not be part of it. Values belong to the binder of their own block, whether it stands above or below them.

By UniProt entry, the sequences of proteins in these tests, tags left out. Where a name states a change or a piece, a line headed by the entry shows the natural chain unless it says otherwise. Residues count along the entry.
UniProt P35968, residues 20-764: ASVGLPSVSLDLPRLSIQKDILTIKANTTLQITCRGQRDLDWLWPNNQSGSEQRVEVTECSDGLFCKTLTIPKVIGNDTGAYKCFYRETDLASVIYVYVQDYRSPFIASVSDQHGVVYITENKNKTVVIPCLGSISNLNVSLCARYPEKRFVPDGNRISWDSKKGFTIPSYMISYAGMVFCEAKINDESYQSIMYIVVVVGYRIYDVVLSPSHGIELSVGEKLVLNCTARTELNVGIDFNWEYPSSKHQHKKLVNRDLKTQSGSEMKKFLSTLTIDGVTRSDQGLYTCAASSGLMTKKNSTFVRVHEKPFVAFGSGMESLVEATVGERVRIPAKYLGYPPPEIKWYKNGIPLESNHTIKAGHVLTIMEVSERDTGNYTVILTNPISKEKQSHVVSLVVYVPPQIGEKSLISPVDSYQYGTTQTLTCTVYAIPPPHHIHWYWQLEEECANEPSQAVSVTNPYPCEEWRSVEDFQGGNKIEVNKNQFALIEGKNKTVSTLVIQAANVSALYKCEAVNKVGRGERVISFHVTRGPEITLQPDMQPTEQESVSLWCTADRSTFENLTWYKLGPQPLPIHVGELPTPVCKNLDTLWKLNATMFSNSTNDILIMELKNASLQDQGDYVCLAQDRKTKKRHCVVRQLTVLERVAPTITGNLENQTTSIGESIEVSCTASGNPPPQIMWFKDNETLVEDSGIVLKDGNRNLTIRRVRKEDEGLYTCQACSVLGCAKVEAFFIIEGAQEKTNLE
UniProt P17948, residues 27-758: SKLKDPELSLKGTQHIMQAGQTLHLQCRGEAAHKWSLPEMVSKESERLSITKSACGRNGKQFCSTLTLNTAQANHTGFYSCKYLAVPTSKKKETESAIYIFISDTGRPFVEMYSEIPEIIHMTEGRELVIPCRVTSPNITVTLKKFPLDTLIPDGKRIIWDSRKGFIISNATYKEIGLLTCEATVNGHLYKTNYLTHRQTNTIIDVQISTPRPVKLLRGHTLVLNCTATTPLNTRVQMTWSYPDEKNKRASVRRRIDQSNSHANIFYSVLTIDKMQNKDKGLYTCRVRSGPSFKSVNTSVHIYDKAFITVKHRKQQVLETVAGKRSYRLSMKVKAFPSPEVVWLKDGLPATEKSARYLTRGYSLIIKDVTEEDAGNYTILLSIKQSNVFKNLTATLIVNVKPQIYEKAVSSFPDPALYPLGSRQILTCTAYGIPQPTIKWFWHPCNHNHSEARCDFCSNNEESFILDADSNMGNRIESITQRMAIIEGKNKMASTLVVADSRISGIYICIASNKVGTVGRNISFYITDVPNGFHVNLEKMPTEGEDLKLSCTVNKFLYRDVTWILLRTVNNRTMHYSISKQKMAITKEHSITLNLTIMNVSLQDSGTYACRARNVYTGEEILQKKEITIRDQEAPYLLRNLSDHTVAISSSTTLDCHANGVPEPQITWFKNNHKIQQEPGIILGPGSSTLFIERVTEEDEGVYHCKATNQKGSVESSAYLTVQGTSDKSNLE
UniProt P15692: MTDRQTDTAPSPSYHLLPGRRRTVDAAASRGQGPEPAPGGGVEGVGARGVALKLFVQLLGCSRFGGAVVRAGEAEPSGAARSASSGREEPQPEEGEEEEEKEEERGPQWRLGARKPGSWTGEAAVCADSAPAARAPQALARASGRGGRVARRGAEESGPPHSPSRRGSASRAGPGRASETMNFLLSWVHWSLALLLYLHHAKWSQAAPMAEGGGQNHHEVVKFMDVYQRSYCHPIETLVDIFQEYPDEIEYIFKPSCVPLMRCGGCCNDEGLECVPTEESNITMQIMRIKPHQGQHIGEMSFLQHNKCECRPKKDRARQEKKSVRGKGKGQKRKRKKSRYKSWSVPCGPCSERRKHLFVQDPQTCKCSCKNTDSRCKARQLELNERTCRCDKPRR

Key:
[1] = molecular target: T1, neuropilin-2-Ig fusion protein (UniProt O60462); test: pull-down of 35S-labelled 293T conditioned medium with NP2-Ig, without heparin
T1 sequence (looked up): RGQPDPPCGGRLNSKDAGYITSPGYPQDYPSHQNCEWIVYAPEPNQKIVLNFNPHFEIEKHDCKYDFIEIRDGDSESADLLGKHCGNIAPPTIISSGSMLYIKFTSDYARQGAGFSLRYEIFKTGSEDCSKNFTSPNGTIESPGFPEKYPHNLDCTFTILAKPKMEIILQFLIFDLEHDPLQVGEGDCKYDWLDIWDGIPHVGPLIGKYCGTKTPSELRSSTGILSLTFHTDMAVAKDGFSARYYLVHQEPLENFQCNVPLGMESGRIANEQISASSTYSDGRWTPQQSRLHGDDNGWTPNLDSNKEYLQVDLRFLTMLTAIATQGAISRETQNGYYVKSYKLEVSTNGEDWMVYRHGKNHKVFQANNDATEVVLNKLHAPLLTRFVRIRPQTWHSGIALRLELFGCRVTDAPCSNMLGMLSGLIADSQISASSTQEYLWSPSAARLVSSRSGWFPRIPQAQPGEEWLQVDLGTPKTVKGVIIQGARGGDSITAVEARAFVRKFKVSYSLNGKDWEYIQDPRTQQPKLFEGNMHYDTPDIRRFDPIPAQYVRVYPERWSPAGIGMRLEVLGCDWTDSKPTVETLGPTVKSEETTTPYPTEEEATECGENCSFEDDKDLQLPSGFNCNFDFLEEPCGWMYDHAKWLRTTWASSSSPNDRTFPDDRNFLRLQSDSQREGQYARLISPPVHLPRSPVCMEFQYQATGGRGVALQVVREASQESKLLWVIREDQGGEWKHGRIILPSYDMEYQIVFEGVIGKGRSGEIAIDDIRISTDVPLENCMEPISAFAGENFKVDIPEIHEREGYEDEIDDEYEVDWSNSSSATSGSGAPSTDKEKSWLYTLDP

[2] = molecular target: soluble VEGFR-2-Ig fusion protein (UniProt P35968); test: pull-down of 35S-labelled 293T conditioned medium with 200 ng VEGFR-2-Ig, protein A/G-Sepharose, SDS-PAGE, autoradiography
[3] = molecular target: T2, neuropilin-1-Ig fusion protein (UniProt O14786); test: pull-down of 35S-labelled 293T conditioned medium with NP1-Ig, with or without 10 µg/ml heparin, SDS-PAGE, autoradiography
T2 sequence (looked up): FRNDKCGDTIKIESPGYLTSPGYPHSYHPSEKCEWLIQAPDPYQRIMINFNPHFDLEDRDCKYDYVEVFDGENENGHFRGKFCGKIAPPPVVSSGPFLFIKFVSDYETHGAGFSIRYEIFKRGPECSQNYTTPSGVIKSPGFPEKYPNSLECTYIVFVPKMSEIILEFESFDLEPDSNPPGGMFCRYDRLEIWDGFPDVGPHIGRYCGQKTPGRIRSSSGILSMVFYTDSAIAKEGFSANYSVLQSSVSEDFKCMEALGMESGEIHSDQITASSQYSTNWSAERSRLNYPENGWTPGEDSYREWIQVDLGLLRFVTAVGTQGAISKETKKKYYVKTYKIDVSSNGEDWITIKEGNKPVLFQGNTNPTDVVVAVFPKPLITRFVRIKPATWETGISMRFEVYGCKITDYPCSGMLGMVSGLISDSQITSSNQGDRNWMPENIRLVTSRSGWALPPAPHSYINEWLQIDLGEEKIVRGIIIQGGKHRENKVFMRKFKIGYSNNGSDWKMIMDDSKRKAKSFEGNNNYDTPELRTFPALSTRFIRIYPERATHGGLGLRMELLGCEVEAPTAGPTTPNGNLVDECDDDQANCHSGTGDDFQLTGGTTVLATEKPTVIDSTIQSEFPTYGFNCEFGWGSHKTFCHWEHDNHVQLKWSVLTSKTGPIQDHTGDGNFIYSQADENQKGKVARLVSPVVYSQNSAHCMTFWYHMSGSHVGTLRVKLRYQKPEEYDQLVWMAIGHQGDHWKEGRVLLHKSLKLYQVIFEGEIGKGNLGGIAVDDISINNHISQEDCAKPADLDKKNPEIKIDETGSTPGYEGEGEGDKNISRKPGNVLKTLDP

[4] = molecular target: T1, neuropilin-2-Ig fusion protein; test: pull-down of 35S-labelled 293T conditioned medium with NP2-Ig, with or without 10 µg/ml heparin, SDS-PAGE, autoradiography
[5] = molecular target: soluble VEGFR-1-Ig fusion protein (UniProt P17948); test: pull-down of 35S-labelled 293T conditioned medium with 200 ng VEGFR-1-Ig, protein A/G-Sepharose, SDS-PAGE, autoradiography
[6] = molecular target: processed VEGF109 cleaved from CUB-VEGF109 (Homo sapiens (Human)) (UniProt P15692); test: anti-myc immunoprecipitation of 35S-labelled 293T medium, 7% PAGE in non-reducing conditions
[7] = molecular target: T2, neuropilin-1-Ig fusion protein; test: pull-down of 35S-labelled 293T conditioned medium with NP-1-Ig conditioned medium, protein A-Sepharose, SDS-PAGE
[8] = molecular target: T1, neuropilin-2-Ig fusion protein; test: pull-down of 35S-labelled 293T conditioned medium with NP-2-Ig conditioned medium, protein A-Sepharose, SDS-PAGE

B1: VEGF-CAC chimeric polypeptide (ligand)
chain: DAAQDPFESGLDLSDAEPDAGEATAYASKDLEEQLRSVSSVDELMTVLYPEYWKMYKCQLRKGGWQHNREQANLNSRTEETIKFAAGQNHHEVVKFMDVYQRSYCHPIETLVDIFQEYPDEIEYIFKPSCVPLMRCGGCCNDEGLECVPTEESNITMQIMRIKPHQGQHIGEMSFLQHNKCECRPKKDVYRQVHSIIRRSLPATLPQCQAANKTCPTNYMWNNHICRCLAQEDFMFSSDAGDDSTDGFHDICGPNKELDEETCQCVCRAGLRPASCGPHKELDRNSCQCVCKNKLFPSQCGANREFDENTCQCVCKRTCPRNQPLNPGKCACECTESPQKCLLKGKKFHHQTCSCYRRPCTNRQKACEPGFSYSEEVCRCVPSYWKRPQMSHHHHHHK
binding [1]: binds
binding [2]: binds
binding [3]: binds
binding [4]: binds
binding [5]: binds

B2: CUB271-VEGF chimeric protein (ligand)
chain: DAAQGSTPQSASIKALRNANLRRDESNHLTDLYRRDETIQVKGNGYVQSPRFPNSYPRNLLLTWRLHSQENTRIQLVFDNQFGLEEAENDICRYDFVEVEDISETSTIIRGRWCGHKEVPPRIKSRTNQIKITFKSDDYFVAKPGFKIYYSLLEDFQPAAASETNWESVTSSISGVSYNSPSVTDPTLIADALDKKIAEFDTVEDLLKYFNPESWQEDLENMYLDTPRYRGRSYHDRKSKVDLDRLNDDAKRYSDPGQNHHEVVKFMDVYQRSYCHPIETLVDIFQEYPDEIEYIFKPSCVPLMRCGGCCNDEGLECVPTEESNITMQIMRIKPHQGQHIGEMSFLQHNKCECRPKKDLVFEQKLISEEDLNSAVDHHHHHH
binding [6]: binds

B4: CUB256-VEGF chimeric protein (ligand)
chain: DAAQGSTPQSASIKALRNANLRRDESNHLTDLYRRDETIQVKGNGYVQSPRFPNSYPRNLLLTWRLHSQENTRIQLVFDNQFGLEEAENDICRYDFVEVEDISETSTIIRGRWCGHKEVPPRIKSRTNQIKITFKSDDYFVAKPGFKIYYSLLEDFQPAAASETNWESVTSSISGVSYNSPSVTDPTLIADALDKKIAEFDTVEDLLKYFNPESWQEDLENMYLDTPRYRGRSYHDRKSNDPGQNHHEVVKFMDVYQRSYCHPIETLVDIFQEYPDEIEYIFKPSCVPLMRCGGCCNDEGLECVPTEESNITMQIMRIKPHQGQHIGEMSFLQHNKCECRPKKDLVFEQKLISEEDLNSAVDHHHHHH
binding [6]: binds

B7: CUB254-VEGF chimeric protein (ligand)
chain: DAAQGSTPQSASIKALRNANLRRDESNHLTDLYRRDETIQVKGNGYVQSPRFPNSYPRNLLLTWRLHSQENTRIQLVFDNQFGLEEAENDICRYDFVEVEDISETSTIIRGRWCGHKEVPPRIKSRTNQIKITFKSDDYFVAKPGFKIYYSLLEDFQPAAASETNWESVTSSISGVSYNSPSVTDPTLIADALDKKIAEFDTVEDLLKYFNPESWQEDLENMYLDTPRYRGRSYHDRNDPGQNHHEVVKFMDVYQRSYCHPIETLVDIFQEYPDEIEYIFKPSCVPLMRCGGCCNDEGLECVPTEESNITMQIMRIKPHQGQHIGEMSFLQHNKCECRPKKDLVFEQKLISEEDLNSAVDHHHHHH
binding [6]: binds

Other lines, results leading:

binding [7]: binds
B3: VEGF-CDC chimeric protein (ligand)
chain: DAAQDPFESGLDLSDAEPDAGEATAYASKDLEEQLRSVSSVDELMTVLYPEYWKMYKCQLRKGGWQHNREQANLNSRTEETIKFAATFYDIETLKVIDEEWQRTQCSPRETCVEVASELGKSTNTFFKPPCVNVFRCGGCCNEESLICMNTSTSYISKQLFEISVPLTSVPELVPVKVANHTGCKCLPTAPRHPYSIIRRSLPATLPQCQAANKTCPTNYMWNNHICRCLAQEDFMFSSDAGDDSTDGFHDICGPNKELDEETCQCVCRAGLRPASCGPHKELDRNSCQCVCKNKLFPSQCGANREFDENTCQCVCKRTCPRNQPLNPGKCACECTESPQKCLLKGKKFHHQTCSCYRRPCTNRQKACEPGFSYSEEVCRCVPSYWKRPQMS

binding [7]: binds
B5: VEGF-CDD chimeric protein (ligand)
chain: DAAQDPFESGLDLSDAEPDAGEATAYASKDLEEQLRSVSSVDELMTVLYPEYWKMYKCQLRKGGWQHNREQANLNSRTEETIKFAATFYDIETLKVIDEEWQRTQCSPRETCVEVASELGKSTNTFFKPPCVNVFRCGGCCNEESLICMNTSTSYISKQLFEISVPLTSVPELVPVKVANHTGCKCLPTAPRHPYSIIRRSIQIPEEDRCSHSKKLCPIDMLWDSNKCKCVLQEENPLAGTEDHSHLQEPALCGPHMMFDEDRCECVCKTPCPKDLIQHPKNCSCFECKESLETCCQKHKLFHPDTCSCEDRCPFHTRPCASGKTACAKHCRFPKEKRAAQGPHSRKNP

binding [8]: binds
binding [7]: binds
B6: VEGF-DDC chimeric protein (ligand)
chain: DAAQDPSSNEHGPVKRSSQSTLERSEQQIRAASSLEELLRITHSEDWKLWRCRLRLKSFTSMDSRSASHRSTRFAATFYDIETLKVIDEEWQRTQCSPRETCVEVASELGKSTNTFFKPPCVNVFRCGGCCNEESLICMNTSTSYISKQLFEISVPLTSVPELVPVKVANHTGCKCLPTAPRHPYSIIRRSLPATLPQCQAANKTCPTNYMWNNHICRCLAQEDFMFSSDAGDDSTDGFHDICGPNKELDEETCQCVCRAGLRPASCGPHKELDRNSCQCVCKNKLFPSQCGANREFDENTCQCVCKRTCPRNQPLNPGKCACECTESPQKCLLKGKKFHHQTCSCYRRPCTNRQKACEPGFSYSEEVCRCVPSYWKRPQMS
